Source: article doi:10.1101/181503

Target: FLAG-ATGL (adipose triglyceride lipase) (not stated (human or mouse cDNA cloned))
Assay: affinity purification with mass spectrometry

binding: binds
B1: hypoxia-inducible gene 2 (HIG2), endogenous (protein, UniProt Q9Y5L2 1-63)
chain: MKHVLNLYLLGVVLTLLSIFVRVMESLEGLLESPSPGTSWTTRSQLANTEPTKGLPDHPSRSM

Results are given in words; binding and its absence hold for the method and conditions named. Binding seen in cells or lysates may run through a third protein. These calls come from enrichment with a bait or labelling near it, and not all partners need be listed.
